# In the supplement of paper PMC4604168 (melanoma cell lines):
# This is one part of the list. Many values rest on one well or one pass, so single values are uncertain.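 The apoptosis fraction was the count of cleaved-PARP antibody-stained nuclei relative to all DNA-stained nuclei, imaged in 1,536-well plates. Screening doses were set so most cells survived, and baseline and induced cleaved-PARP levels vary greatly across cell lines.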
# Key:
# Test in all cases: cleaved PARP positive nuclei fraction relative to DMSO control; melanoma cells; higher = more apoptosis
# Settings in all cases: library dose: low library concentration; 72 h
# 501Mel = tested on: 501Mel
# A101D = tested on: A101D
# A2058 = tested on: A2058
# C32 = tested on: C32
# CBRC008 = tested on: CBRC008 (line from a melanoma biopsy)
# CBRC014 = tested on: CBRC014 (line from a melanoma biopsy)
# CBRC016 = tested on: CBRC016 (line from a melanoma biopsy)
# CBRC017 = tested on: CBRC017 (line from a melanoma biopsy)
Structure (SMILES),cleaved PARP positive nuclei fraction (501Mel),cleaved PARP positive nuclei fraction (A101D),cleaved PARP positive nuclei fraction (A2058),cleaved PARP positive nuclei fraction (C32),cleaved PARP positive nuclei fraction (CBRC008),cleaved PARP positive nuclei fraction (CBRC014),cleaved PARP positive nuclei fraction (CBRC016),cleaved PARP positive nuclei fraction (CBRC017)
"Cn1cc(C2=C(c3cn(C4CCN(Cc5ccccn5)CC4)c4ccccc34)C(=O)NC2=O)c2ccccc21 [Enzastaurin] + C/C(O)=C(\C#N)C(=O)Nc1cc(Br)ccc1Br [LFM-A13] (first compound 0.8 µM, partner dose 2 µM)",65.6%,23.5%,170%,173%,47.7%,104%,34%,97.7%
"C[C@]12O[C@H](C[C@]1(O)CO)n1c3ccccc3c3c4c(c5c6ccccc6n2c5c31)CNC4=O [Lestaurtinib] + COc1cc2ncnc(Nc3ccc(Oc4ccccc4)cc3)c2cc1OC [SrcI1] (first compound 0.004 µM, partner dose 2 µM)",69%,20.7%,39.7%,118%,86.1%,198%,61.6%,68.7%
"Clc1ccc(Nc2nnc(Cc3ccncc3)c3ccccc23)cc1 [vatalanib] + O=C(Oc1ccc([N+](=O)[O-])cc1)N1CCC(C(O)(c2ccc3c(c2)OCO3)c2ccc3c(c2)OCO3)CC1 [JZL184] (first compound 2 µM, partner dose 1 µM)",53.1%,107%,128%,91.1%,164%,110%,138%,115%
"C[C@]1(O)C[C@@H](c2nc(-c3ccc4ccc(-c5ccccc5)nc4c3)c3c(N)nccn32)C1 + Cc1cc(SCc2sc(-c3ccc(C(F)(F)F)c(F)c3)nc2C)ccc1OCC(=O)O [GW0742] (first compound 0.4 µM, partner dose 2 µM)",81.2%,27.6%,90.1%,194%,163%,119%,99.2%,105%
"C[C@]12O[C@H](C[C@]1(O)CO)n1c3ccccc3c3c4c(c5c6ccccc6n2c5c31)CNC4=O [Lestaurtinib] + COc1ccc(-c2ccc3c(N4CCOCC4)nc(N4C[C@@H](C)O[C@@H](C)C4)nc3n2)cc1CO [KU0063794] (first compound 0.004 µM, partner dose 0.02 µM)",68.4%,14.8%,168%,292%,111%,82.5%,54.5%,78%
"Cn1c(=O)n(-c2ccc(C(C)(C)C#N)cc2)c2c3cc(-c4cnc5ccccc5c4)ccc3ncc21 + C/C(O)=C(\C#N)C(=O)Nc1cc(Br)ccc1Br [LFM-A13] (first compound 0.004 µM, partner dose 2 µM)",57.9%,23.7%,89.8%,91.3%,56.3%,79.6%,34.2%,95.3%
"Nc1ncn([C@H]2C[C@H](O)[C@@H](CO)O2)c(=O)n1 [decitabine] + C/C(O)=C(\C#N)C(=O)Nc1cc(Br)ccc1Br [LFM-A13] (first compound 0.1 µM, partner dose 2 µM)",116%,58.3%,134%,132%,54.7%,105%,113%,133%
"N.N.[Cl][Pt][Cl] [cisplatin] + N#Cc1c(O)c2c(-c3ccc(-c4ccccc4O)cc3)csc2[nH]c1=O [A769662] (first compound 1.6 µM, partner dose 2 µM)",110%,18.8%,35%,58.6%,47.7%,132%,69.6%,81.5%
"N.N.[Cl][Pt][Cl] [cisplatin] + COc1ccc(COc2ccc(Cc3cnc(N)nc3N)cc2OC)cc1 [GW2580] (first compound 1.6 µM, partner dose 1 µM)",185%,23.8%,160%,72.1%,267%,86.3%,56.9%,137%
"N.N.[Cl][Pt][Cl] [cisplatin] + O=c1cc(-c2cccc3c2Sc2ccccc2S3)oc(N2CCOCC2)c1 [KU55933] (first compound 1.6 µM, partner dose 1 µM)",73%,30.2%,44.7%,118%,136%,88.6%,62.1%,85.3%
"Cn1cc(C2=C(c3cn(C4CCN(Cc5ccccn5)CC4)c4ccccc34)C(=O)NC2=O)c2ccccc21 [Enzastaurin] + COc1ccc(COc2ccc(Cc3cnc(N)nc3N)cc2OC)cc1 [GW2580] (first compound 0.8 µM, partner dose 1 µM)",68.4%,15.4%,46.7%,99.5%,109%,102%,70.6%,115%
"N.N.[Cl][Pt][Cl] [cisplatin] + Oc1cc(-c2nc(-c3ccccc3)[nH]c2-c2ccncc2)ccc1Cl [L779450] (first compound 1.6 µM, partner dose 0.2 µM)",34.3%,26.2%,130%,54%,188%,110%,136%,111%
"CCN(CC)CCNC(=O)c1c(C)[nH]c(/C=C2\C(=O)Nc3ccc(F)cc32)c1C [sunitinib] + Cc1cc(SCc2sc(-c3ccc(C(F)(F)F)c(F)c3)nc2C)ccc1OCC(=O)O [GW0742] (first compound 0.4 µM, partner dose 2 µM)",81.1%,37.7%,85.7%,37.4%,192%,101%,77.5%,150%
"OCc1c[nH]c2ccccc12 [Indole-3-carbinol] + Cc1cc(SCc2sc(-c3ccc(C(F)(F)F)c(F)c3)nc2C)ccc1OCC(=O)O [GW0742] (first compound 0.8 µM, partner dose 2 µM)",78.5%,15.4%,151%,71.9%,202%,96.6%,42.1%,89.5%
"CC[C@]1(O)C[C@H]2CN(CCc3c([nH]c4ccccc34)[C@@](C(=O)OC)(c3cc4c(cc3OC)N(C=O)[C@H]3[C@@](O)(C(=O)OC)[C@H](OC(C)=O)[C@]5(CC)C=CCN6CC[C@]43[C@@H]65)C2)C1 [vincristine] + O=C(Oc1ccc([N+](=O)[O-])cc1)N1CCC(C(O)(c2ccc3c(c2)OCO3)c2ccc3c(c2)OCO3)CC1 [JZL184] (first compound 0.0001 µM, partner dose 1 µM)",320%,28.8%,1410%,137%,48.4%,89.7%,85.8%,84.7%
"CCN(CC)CCNC(=O)c1c(C)[nH]c(/C=C2\C(=O)Nc3ccc(F)cc32)c1C [sunitinib] + C/C(O)=C(\C#N)C(=O)Nc1cc(Br)ccc1Br [LFM-A13] (first compound 0.4 µM, partner dose 2 µM)",245%,44.4%,117%,80.5%,142%,282%,88.6%,101%
"CC[C@]1(O)C[C@H]2CN(CCc3c([nH]c4ccccc34)[C@@](C(=O)OC)(c3cc4c(cc3OC)N(C=O)[C@H]3[C@@](O)(C(=O)OC)[C@H](OC(C)=O)[C@]5(CC)C=CCN6CC[C@]43[C@@H]65)C2)C1 [vincristine] + Cc1cc(SCc2sc(-c3ccc(C(F)(F)F)c(F)c3)nc2C)ccc1OCC(=O)O [GW0742] (first compound 0.0001 µM, partner dose 2 µM)",33.4%,45.9%,321%,74.9%,123%,112%,98.6%,118%
"OCc1c[nH]c2ccccc12 [Indole-3-carbinol] + C/C(O)=C(\C#N)C(=O)Nc1cc(Br)ccc1Br [LFM-A13] (first compound 0.8 µM, partner dose 2 µM)",76.7%,22.1%,47.7%,392%,183%,115%,373%,173%
"CN(c1ncccc1CNc1nc(Nc2ccc3c(c2)CC(=O)N3)ncc1C(F)(F)F)S(C)(=O)=O + Cc1cc(SCc2sc(-c3ccc(C(F)(F)F)c(F)c3)nc2C)ccc1OCC(=O)O [GW0742] (first compound 0.08 µM, partner dose 2 µM)",103%,32.2%,45.1%,93%,145%,196%,55.8%,89.5%
"O=c1[nH]nc(Sc2ncc([N+](=O)[O-])s2)n1-c1ccc2c(c1)OCCO2 + C/C(O)=C(\C#N)C(=O)Nc1cc(Br)ccc1Br [LFM-A13] (first compound 0.2 µM, partner dose 2 µM)",124%,8.98%,311%,79.3%,48%,106%,36.6%,97.6%
"Cn1cc(C2=C(c3cn(C4CCN(Cc5ccccn5)CC4)c4ccccc34)C(=O)NC2=O)c2ccccc21 [Enzastaurin] + COc1cc(N2CCC(N3CCN(C)CC3)CC2)ccc1Nc1ncc(Cl)c(Nc2ccccc2S(=O)(=O)C(C)C)n1 [NVP-TAE684] (first compound 0.8 µM, partner dose 0.08 µM)",87.8%,27.2%,168%,76.8%,147%,101%,64.8%,81%
"O=c1[nH]nc(Sc2ncc([N+](=O)[O-])s2)n1-c1ccc2c(c1)OCCO2 + Cc1cc(SCc2sc(-c3ccc(C(F)(F)F)c(F)c3)nc2C)ccc1OCC(=O)O [GW0742] (first compound 0.2 µM, partner dose 2 µM)",75.4%,20.8%,99%,39.2%,62.5%,88.4%,49.1%,79.7%
"O=C(Nc1cc(C(F)(F)F)cc(C(F)(F)F)c1)c1cc(Cl)ccc1O + C/C(O)=C(\C#N)C(=O)Nc1cc(Br)ccc1Br [LFM-A13] (first compound 0.016 µM, partner dose 2 µM)",192%,31.9%,88.4%,158%,190%,100%,91.9%,143%
"Cn1cnc2c(F)c(Nc3ccc(Br)cc3Cl)c(C(=O)NOCCO)cc21 [selumetinib] + C/C(O)=C(\C#N)C(=O)Nc1cc(Br)ccc1Br [LFM-A13] (first compound 0.015 µM, partner dose 2 µM)",142%,48.4%,49.4%,42.2%,116%,77.7%,93.8%,111%

# Record cards, as listed above:
# C[C@]1(O)C[C@@H](c2nc(-c3ccc4ccc(-c5ccccc5)nc4c3)c3c(N)nccn32)C1 + Cc1cc(SCc2sc(-c3ccc(C(F)(F)F)c(F)c3)nc2C)ccc1OCC(=O)O [GW0742] (first compound 0.4 µM, partner dose 2 µM) in the list: cleaved PARP positive nuclei fraction (501Mel): 81.2%; cleaved PARP positive nuclei fraction (A101D): 27.6%; cleaved PARP positive nuclei fraction (A2058): 90.1%; cleaved PARP positive nuclei fraction (C32): 194%; cleaved PARP positive nuclei fraction (CBRC008): 163%; cleaved PARP positive nuclei fraction (CBRC014): 119%; cleaved PARP positive nuclei fraction (CBRC016): 99.2%; cleaved PARP positive nuclei fraction (CBRC017): 105%
# Nc1ncn([C@H]2C[C@H](O)[C@@H](CO)O2)c(=O)n1 [decitabine] + C/C(O)=C(\C#N)C(=O)Nc1cc(Br)ccc1Br [LFM-A13] (first compound 0.1 µM, partner dose 2 µM) in the list: cleaved PARP positive nuclei fraction (501Mel): 116%; cleaved PARP positive nuclei fraction (A101D): 58.3%; cleaved PARP positive nuclei fraction (A2058): 134%; cleaved PARP positive nuclei fraction (C32): 132%; cleaved PARP positive nuclei fraction (CBRC008): 54.7%; cleaved PARP positive nuclei fraction (CBRC014): 105%; cleaved PARP positive nuclei fraction (CBRC016): 113%; cleaved PARP positive nuclei fraction (CBRC017): 133%
